The values that follow come from paper PMC7819943, “Rice protein-binding microarrays: a tool to detect cis-acting elements near promoter regions in rice”.

Amino acid sequences for entries named in this document (tags omitted).
UniProt Q0JBA9, entry or part of it: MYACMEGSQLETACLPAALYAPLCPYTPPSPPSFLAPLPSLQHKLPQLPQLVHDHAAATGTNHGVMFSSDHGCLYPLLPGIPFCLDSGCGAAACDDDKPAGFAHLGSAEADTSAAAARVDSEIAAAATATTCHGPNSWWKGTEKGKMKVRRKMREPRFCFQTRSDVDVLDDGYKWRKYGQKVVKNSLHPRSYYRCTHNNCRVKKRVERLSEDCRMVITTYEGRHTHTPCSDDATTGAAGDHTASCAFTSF

The other results are listed elsewhere or left out.

This assay addresses OsWRKY34 (Oryza sativa, UniProt Q0JBA9 1-250). In words: protein-binding microarray (RPBM); PBS, 2% BSA, 51.3 ng/ul salmon testes DNA, 50 uM zinc acetate, 200 nM TF, 25 C, 1 h; high values mean tight binding. Particulars: protein: recombinant; tags: N-terminal polyhistidine and DsRed monomer fusion (pET32a); label: CyDye5-dUTP incorporated in the synthesized complementary strand; 3' TTTTT single-stranded linker to array surface; dsDNA, one strand shown. In a few lines:
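The binding signal is fluorescence intensity per feature, in arbitrary units, read on an Axon 4000B scanner. Polyhistidine- and DsRed-tagged transcription factors (N-terminal fusions) from E. coli BL21-CodonPlus were purified on Ni–NTA and applied at 200 nM for 1 h at 25 °C to a double-stranded, BSA-blocked custom Agilent array in buffer with 50 µM zinc acetate.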
Take “TGCTGTTTGGTAGCCAACTTATAAAGGTTTTTTCAGCTTCCGGAGTCACCTAGTGCAG”: the binding signal is 9020 fluorescence intensity (a.u.).

Turning to “CCCACGCAAGCACGCACTCGTCTTAGCAGTCCTCGAGCTTCGGAGTCACCTAGTGCAG”, the binding signal is 9400 fluorescence intensity (a.u.).

In the case of “ATTGATTGATTGGTTGGTTGGTTGGTTGGGTTGATCGATGCGGAGTCACCTAGTGCAG”, the binding signal was 20300 fluorescence intensity (a.u.).

On to “TTGCTCACTTGTTCTGTTCTTGCCCGGTCAACTTGCGACGCGGAGTCACCTAGTGCAG”, for which the binding signal is 8760 fluorescence intensity (a.u.).

For “GGCGTTGACGTGGCGATGTTGACCTAGTATTTGTCCCACGCGGAGTCACCTAGTGCAG”, the binding signal is 8350 fluorescence intensity (a.u.).

For the sequence “TTTATTTTCTAAAATTTTATACCCTGCCAATTCACGTGTTCGGAGTCACCTAGTGCAG”, the binding signal is 8870 fluorescence intensity (a.u.).

With “TATATATATATATATATATATAGTAAAAGTAACTTACGTACGGAGTCACCTAGTGCAG”, the binding signal was 10600 fluorescence intensity (a.u.).

On to “TTCTTGGGGCTGGAGAGGGTGGGGATGGTGGTGCGGATGCCGGAGTCACCTAGTGCAG”, for which the binding signal was 15000 fluorescence intensity (a.u.).

On to “CTACACCCCACACCGCTTCCACGTACCTTGTATTTATCATCGGAGTCACCTAGTGCAG”, for which the binding signal is 15200 fluorescence intensity (a.u.).

As for “GGTAGGGTTGGGATGGGATGTGCAAGTAACCCGGGTGGATCGGAGTCACCTAGTGCAG”, the binding signal was 10000 fluorescence intensity (a.u.).

On to “CGACGGAGAAATTATTTTCTATTTTTTTGTTTTTGTTTCCCGGAGTCACCTAGTGCAG”, for which the binding signal is 10900 fluorescence intensity (a.u.).

On to “CTCTCCAGTTGCTTCCATTTCCAGAGATATGCCATCGTTGCGGAGTCACCTAGTGCAG”, for which the binding signal was 10100 fluorescence intensity (a.u.).

For the sequence “ACCCTTTCCCATTTACACCCGCCACCTAGCTTAAACCCATCGGAGTCACCTAGTGCAG”, the binding signal was 8960 fluorescence intensity (a.u.).

With “GCCTCCGCCGTCGAACTTTTCCCCGCCGACCGACACCCTTCGGAGTCACCTAGTGCAG”, the binding signal was 11200 fluorescence intensity (a.u.).

Consider “CCCAATCTCTGCAACTGCACCATGATCCACTAGTAGTTATCGGAGTCACCTAGTGCAG”, for which the binding signal was 8110 fluorescence intensity (a.u.).

“GATCACCACCACCGTGAGTTCGGAGTTTTCTTTGTTTTTTCGGAGTCACCTAGTGCAG”: the binding signal was 10000 fluorescence intensity (a.u.).

On to “CGTCCGATCCACCGATTTGCCACGAATTGCTGTTATTGTTCGGAGTCACCTAGTGCAG”, for which the binding signal is 10500 fluorescence intensity (a.u.).

As for “ACTGCTATTGTTGTTCTTACCATCACAATCTGTTTTTCTTCGGAGTCACCTAGTGCAG”, the binding signal was 13300 fluorescence intensity (a.u.).

On to “ACTGCCGCCGCCGCCGCCACTCCATCCACTCTGCCACCGCCGGAGTCACCTAGTGCAG”, for which the binding signal is 8030 fluorescence intensity (a.u.).

As to “TACCGTTCATCCACGTCTCATCTAATCTCATCCGTCCGCTCGGAGTCACCTAGTGCAG”, the binding signal was 8540 fluorescence intensity (a.u.).

For “CCCTACTAGAATATATGATCTCGCCTCATCTTTTATTTGCCGGAGTCACCTAGTGCAG”, the binding signal is 8150 fluorescence intensity (a.u.).

As for “CATCTCCTCGCATGCAACCACGTACACCTCCTCGTCTATGCGGAGTCACCTAGTGCAG”, the binding signal was 8400 fluorescence intensity (a.u.).

Regarding “GGGCGTCGAGCGGGTTGGAGGGTTTCTTGAGCGGGTTCGCCGGAGTCACCTAGTGCAG”, the binding signal is 9020 fluorescence intensity (a.u.).

Turning to “GCAAACATCATCTCTTTTTTCTGTATCTGCTCTATTTACACGGAGTCACCTAGTGCAG”, the binding signal was 8780 fluorescence intensity (a.u.).

As to “CTCCACGCGCACCTCGCCGCGTCCCTGATCTGATTGATTGCGGAGTCACCTAGTGCAG”, the binding signal was 10200 fluorescence intensity (a.u.).

As to “GGCTCTTTTAAGTCTTGACAGACGACGGCAGCAGTTTTTCCGGAGTCACCTAGTGCAG”, the binding signal is 8760 fluorescence intensity (a.u.).

As to “GATGACTTGCGATGTCGCCTTTTGATGTTTTTATGCATGCCGGAGTCACCTAGTGCAG”, the binding signal is 11200 fluorescence intensity (a.u.).

Take “CTATAATCCGCTTTCCACATAATGTCACGGTCTCCAATCTCGGAGTCACCTAGTGCAG”: the binding signal is 8230 fluorescence intensity (a.u.).

For the sequence “GAGCTCGGCGAAATCGATCTGTGGGAGGGAGGGCGGCGAGCGGAGTCACCTAGTGCAG”, the binding signal is 9110 fluorescence intensity (a.u.).

Consider “TGGATACTTGGCGTTGGTGGGCTGGTTCTTATTGGATACGCGGAGTCACCTAGTGCAG”, for which the binding signal was 8120 fluorescence intensity (a.u.).

As to “ACCCGCGCCTCTCGGAGTCCGACTCTATCCACTCCCGCGACGGAGTCACCTAGTGCAG”, the binding signal was 8030 fluorescence intensity (a.u.).

Consider “TGGCTGGTGTTTTAGGCTAGGGATGTCCTTTTCGCTTACCCGGAGTCACCTAGTGCAG”, for which the binding signal was 8100 fluorescence intensity (a.u.).

Regarding “CCACCACCGCCACCGCCACCGCCACCGCCCCTACACCTGCCGGAGTCACCTAGTGCAG”, the binding signal is 9350 fluorescence intensity (a.u.).

For the sequence “CACTCCAACCAAAGTGACCGTTGCAACCTCATCTCCGCTCCGGAGTCACCTAGTGCAG”, the binding signal was 9740 fluorescence intensity (a.u.).

With “AACCTCACCGCAAACCTCACCTGGTTCTTCTTCCTCGCATCGGAGTCACCTAGTGCAG”, the binding signal was 10100 fluorescence intensity (a.u.).

As for “AGCTTAATGTTCACTTGACTAATTAGTTCATTATTCCACACGGAGTCACCTAGTGCAG”, the binding signal is 8940 fluorescence intensity (a.u.).

For “TGTTTTCTCTGAATTGGTGTGTGTGTGTTCAGTGGCAAAGCGGAGTCACCTAGTGCAG”, the binding signal is 8080 fluorescence intensity (a.u.).

Regarding “GTCATATGATAACTACTATATTTACTTGATAATTCGTCCTCGGAGTCACCTAGTGCAG”, the binding signal was 8570 fluorescence intensity (a.u.).

“GTACACCTTACGACTGTACAGCATCCCAATCAAACATTTCCGGAGTCACCTAGTGCAG”: the binding signal was 11000 fluorescence intensity (a.u.).

In the case of “TAAACTATATGTCTGACCGCTTGCAGAACTACTGATTGACCGGAGTCACCTAGTGCAG”, the binding signal is 9300 fluorescence intensity (a.u.).

For “GTTTCACATTTGTGTGTTTTTGGTTGCAAATGCTTTGTCTCGGAGTCACCTAGTGCAG”, the binding signal was 9520 fluorescence intensity (a.u.).

With “TCCTTGCACAATCATTATTCCCTTTCTTGCTTACTTTCTTCGGAGTCACCTAGTGCAG”, the binding signal was 9810 fluorescence intensity (a.u.).
